Data as given in patent US9440980B2, “Remedy for diabetes” (EA Pharma Co., Ltd., priority 2007, dated 2016).
Some results were stated once for a whole list of compounds, not compound by compound.

Test system: C57BL/KsJ-db/dbJcl mouse
Test: Hypoglycemic effect of glucose uptake enhancer in db/db mouse
Type: in vivo
Conditions: db/db mouse fasted about 20 hours, blood glucose up to 180 minutes
[1] = oral single administration 100 mg/kg

Row | SMILES | hypoglycemic effect against the control [1] [%] | hypoglycemic effect against the control (oral single administration 10 mg/kg) [%]
1 | O=C1NCC2=C1[C@@H](c1ccccc1)N(C(=O)CO)[C@@H]1CCCC[C@H]1N2 [Compound 6] | ≥ 25 | –
2 | O=C1NCC2=C1[C@@H](c1cccc3ccoc13)N(C(=O)C1CC1)[C@@H]1CCCC[C@H]1N2 [Compound 5] | – | ≥ 25
3 | COc1ccccc1[C@@H]1C2=C(CNC2=O)N[C@@H]2CCCC[C@H]2N1C(=O)CCc1nccs1 [Compound 3] | ≥ 25 | –
